These are literature values, as cited in US7101912B2, “Carbidopa prodrugs and derivatives, and compositions and uses thereof” (XenoPort, Inc., priority 2002, dated 2006).

Read-outs that look alike come from different tables or passages of the source.

The conditions of the data set: patients.

Regarding `N[C@@H](Cc1ccc(O)c(O)c1)C(=O)O` [levodopa, L-3,4-dihydroxyphenylalanine], the “half-life of levodopa in plasma” value reads like this: (administered alone) “about 50 min”; (given with carbidopa) 1 to 2 h.
